Experimental data: PubChem BioAssay AID1259308 (NCATS, 2017)
In all, the deposit lists about 59,000 reagents; shown is a part drawn at random. About 1,510 of all reagents (2.6%) were called active. 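Calls use total luciferase alone and ignore viability, so some active siRNAs may act by altering cell number.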 Entries without a mark were called inactive. The numbers tell different reagents against one gene apart. Further read-outs or replicates are left out here.

Aim: 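Knock-downs that increase output of a recombinant reporter protein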 (primary screen)
Cells: human HEK293 embryonic kidney cells stably expressing firefly luciferase (HEK-CMV-Luc2-Hygro)
Reagent: single siRNA against human genes, 0.8 pmol siRNA per well
Duration: 72 h
Measurement: 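Reporter luminescence and viable-cell signal on separate replicate plates, given as percent of non-targeting control and median/MAD z-scores, plus per-cell luciferase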
Direction: total luciferase, z-score and total luciferase, % of control: higher = more reporter protein produced
Hit rule: 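Active when the median/MAD z-score for overall luciferase is greater than 3; a gene was taken forward for validation with new siRNAs if at least two of its three siRNAs passed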
Calls: active = raised luciferase; inactive = no rise

Depletion of PCDHGA11 #1 resulted in: total luciferase, z-score 0.626; total luciferase, % of control 94.3.
Silencing of PCDHGA11 #2 resulted in: total luciferase, z-score 0.184; total luciferase, % of control 85.6.
Depletion of PCDHGA11 #3 gave: total luciferase, z-score 0.855; total luciferase, % of control 98.9.
Silencing of COL23A1 #1 came out at: total luciferase, z-score -0.209; total luciferase, % of control 77.7.
COL23A1 #2 showed total luciferase, z-score 0.671; total luciferase, % of control 95.2.
COL23A1 #3 showed total luciferase, z-score 2.67; total luciferase, % of control 135.
After knock-down of C1orf116 #1, the record shows total luciferase, z-score 0.144; total luciferase, % of control 84.7.
C1orf116 #2 gave total luciferase, z-score 0.509; total luciferase, % of control 92.
After knock-down of C1orf116 #3 the results were total luciferase, z-score 1.27; total luciferase, % of control 107.
SIGLEC7 #1 showed total luciferase, z-score -0.693; total luciferase, % of control 68.1.
SIGLEC7 #2 gave total luciferase, z-score -0.281; total luciferase, % of control 76.3.
Against SIGLEC7 #3, the entry reads total luciferase, z-score 1.01; total luciferase, % of control 102.
PKN2 #1 showed total luciferase, z-score 0.488; total luciferase, % of control 91.6.
PKN2 #2 showed total luciferase, z-score 0.39; total luciferase, % of control 89.7.
Knock-down of PKN2 #3 came out at: total luciferase, z-score 0.172; total luciferase, % of control 85.3.
FTCDNL1 #1 gave total luciferase, z-score 0.579; total luciferase, % of control 93.4.
FTCDNL1 #2 showed total luciferase, z-score 0.0848; total luciferase, % of control 83.6.
Knock-down of FTCDNL1 #3 gave: total luciferase, z-score -0.467; total luciferase, % of control 72.6.

Reprinted from the entries so far (4 entries):
C1orf116 #3: total luciferase, z-score = 1.27; total luciferase, % of control = 107
SIGLEC7 #1: total luciferase, z-score = -0.693; total luciferase, % of control = 68.1
SIGLEC7 #2: total luciferase, z-score = -0.281; total luciferase, % of control = 76.3
SIGLEC7 #3: total luciferase, z-score = 1.01; total luciferase, % of control = 102

Next entries follow.
Against CSF2RB #1, the entry reads total luciferase, z-score 2.89; total luciferase, % of control 139.
After knock-down of CSF2RB #2, the record shows total luciferase, z-score 0.376; total luciferase, % of control 89.4.
For CSF2RB #3 the deposit lists total luciferase, z-score 0.254; total luciferase, % of control 86.9.
Knock-down of MON1A #1 gave: total luciferase, z-score -1.13; total luciferase, % of control 59.3.
MON1A #2 showed total luciferase, z-score -0.573; total luciferase, % of control 70.5.
For MON1A #3, the values are total luciferase, z-score 0.98; total luciferase, % of control 101.
With knock-down of SIAE #1 the results were total luciferase, z-score 1.14; total luciferase, % of control 105.
For SIAE #2, the entry reads total luciferase, z-score -1.02; total luciferase, % of control 61.7.
Against SIAE #3, the values are total luciferase, z-score 0.488; total luciferase, % of control 91.6.
With knock-down of GPR146 #1, the screen gave total luciferase, z-score 0.0193; total luciferase, % of control 82.3.
Knock-down of GPR146 #2 gave: total luciferase, z-score -1.61; total luciferase, % of control 49.8.
GPR146 #3 gave total luciferase, z-score 0.727; total luciferase, % of control 96.3.
CLU #1 gave total luciferase, z-score -0.47; total luciferase, % of control 72.5.
CLU #2 scored total luciferase, z-score 0.308; total luciferase, % of control 88.
CLU #3 scored total luciferase, z-score -0.609; total luciferase, % of control 69.8.
